# Source: the supplement of paper PMC7411640
# Where a name gives a salt, the structure may show the parent alone. This is one part of the list. This data set is noisy: repeats of one test often differ as much as different tests do.
# Test system: MDA-MB-468
# Experiment: phospho-S6 immunofluorescence (DAPI-normalised), per-plate z-score; higher = higher phospho-S6 signal (less pathway suppression)
# Settings: 24 h
# Method: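 GPCR-targeted compound library (MedChemExpress HY-L006) tested on MDA-MB-468 PTEN-null TNBC cells in 384-well plates at 0.1, 1 or 10 uM, combined with vehicle, GDC0941 450 nM or lapatinib 1 uM, for 24 h. Phospho-S6 (S240/244) immunofluorescence normalised to DAPI and expressed as a per-plate z-score; values are the mean of biological triplicates.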
# [1] = compound 0.1 µM, co-treatment: GDC0941 450 nM
# [2] = compound 0.1 µM, co-treatment: lapatinib 1 uM
# [3] = compound 0.1 µM, co-treatment: vehicle
# [4] = compound 1 µM, co-treatment: GDC0941 450 nM
# [5] = compound 1 µM, co-treatment: lapatinib 1 uM
# [6] = compound 1 µM, co-treatment: vehicle
# [7] = compound 10 µM, co-treatment: GDC0941 450 nM
# [8] = compound 10 µM, co-treatment: lapatinib 1 uM
# [9] = compound 10 µM, co-treatment: vehicle
SMILES,phospho-S6 immunofluorescence (z-score) [1],phospho-S6 immunofluorescence (z-score) [2],phospho-S6 immunofluorescence (z-score) [3],phospho-S6 immunofluorescence (z-score) [4],phospho-S6 immunofluorescence (z-score) [5],phospho-S6 immunofluorescence (z-score) [6],phospho-S6 immunofluorescence (z-score) [7],phospho-S6 immunofluorescence (z-score) [8],phospho-S6 immunofluorescence (z-score) [9]
CC(=O)OCC(=O)[C@@]12OC(C)(C)O[C@@H]1C[C@H]1[C@@H]3C[C@H](F)C4=CC(=O)C=C[C@]4(C)[C@@]3(F)[C@@H](O)C[C@@]12C [Fluocinonide],-1,0.12,0.81,-1.4,0.44,0.21,-0.28,0.59,0.62
CCC1(c2c[nH]cn2)Cc2ccccc2C1 [Atipamezole (hydrochloride)],-0.07,-0.62,0.31,-1.15,-1.25,1.16,-0.61,0.37,1.24
C[C@]12CCC(=O)C=C1CC[C@@H]1[C@@H]2CC[C@@]2(C)[C@H]1CC[C@]2(O)C(=O)CO [Cortodoxone],0.33,0.09,-1.17,-0.56,1.18,-1.94,-0.95,1.37,-0.43
COCCCN1CCC(NC(=O)c2cc(Cl)c(N)c3c2OCC3)CC1 [Prucalopride],-0.03,0.02,0.31,0.22,-0.02,-0.07,0.54,0,0.17
CC(C)N(CCCCOCC(=O)NS(C)(=O)=O)c1cnc(-c2ccccc2)c(-c2ccccc2)n1,1.03,-1.43,-0.51,0.69,-1.06,-0.38,0.87,0.26,-0.38
CN(C)CCC(c1ccc(Cl)cc1)c1ccccn1 (centres undefined) [Chlorpheniramine (maleate)],-0.6,-1.36,-0.19,-4.49,-2.23,-0.47,-5.85,-10.5,-8.97
c1cc(CN2CCCNCCNCCCNCC2)ccc1CN1CCCNCCNCCCNCC1 [Plerixafor],-0.44,-0.27,-0.58,-0.33,-0.4,0.18,-0.31,0.01,0.2
CCOC(=O)N1CCC(NCCNC(=O)c2ccccc2C)CC1,0.6,1,0.55,0.31,-0.3,0.83,0.96,-0.15,1.13
CCCCC(=O)N(Cc1ccc(-c2ccccc2-c2nnn[nH]2)cc1)[C@H](C(=O)O)C(C)C [Valsartan],0.8,0.9,0.9,0.58,0.18,1.1,0.04,0.5,0.13
CN(C)CCCN1c2ccccc2CCc2ccc(Cl)cc21 [Clomipramine (hydrochloride)],-0.29,-0.7,-1.47,-0.08,-1.69,-2.24,-1.98,-3.26,-1.14
Nc1ccc(/C=C/c2cccc(C(=O)O)n2)cc1,0.78,0.36,-0.04,0.34,0.45,0.74,0.9,0.88,1.07
Cc1nc2n(c(=O)c1CCN1CCC(c3noc4cc(F)ccc34)CC1)CCCC2O (centres undefined) [Paliperidone],1.94,0.87,0.4,0.58,0.4,0.39,0.37,0.36,0.5
COc1cc2nc(N3CCN(C(=O)C4COc5ccccc5O4)CC3)nc(N)c2cc1OC (centres undefined) [Doxazosin (mesylate)],-1.06,-0.44,-0.01,-2.97,-1.72,1.2,-3.46,-7.7,-8.17
COc1cc2nc(N3CCN(C(=O)C4CCCO4)CC3)nc(N)c2cc1OC (centres undefined) [Terazosin (hydrochloride dihydrate)],0.48,1.09,0.07,0.5,-0.9,0.16,0.82,0.9,0.87
CNCCc1ccccn1 [Betahistine (dihydrochloride)],0.03,-0.29,-0.86,-0.29,-0.79,-0.98,-1.02,0.1,-0.72
C[C@]12C=CC(=O)C=C1CC[C@@H]1[C@@H]2C(=O)C[C@@]2(C)[C@H]1CC[C@]2(O)C(=O)CO [Prednisone],1.07,0.63,0.78,0.49,0.88,0.58,0.55,1.24,0.94
CCCN(CCN1CCN(c2ccccc2OC)CC1)C1CCc2ncsc2C1 (centres undefined) [ST-836 (hydrochloride)],-0.69,-1.25,-1.13,-0.54,0.04,-2.75,0.29,-0.62,0.1
COc1nc(C)cnc1NS(=O)(=O)c1cccnc1-c1ccc(-c2nnco2)cc1 [Zibotentan],-1.11,-1.64,-1.87,-1.46,0.01,-1.99,-2.05,-0.19,-2.06
COc1ccc2ccc(=O)oc2c1CC=C(C)C [Osthole],-0.81,-0.39,0.08,0.29,-0.29,0.45,0.06,0.19,0.23
O=C(O[C@H]1CN2CCC1CC2)N1CCc2ccccc2[C@@H]1c1ccccc1 [Solifenacin (hydrochloride)],0.37,0.14,-0.91,-0.44,-0.4,-2.02,0.75,1.12,-1.36
OCc1ccc(-c2nn(Cc3ccccc3)c3ccccc23)o1 [Lificiguat],-0.71,-0.47,-0.86,3.17,3.87,-2.74,3.23,2.82,0.54

# Quoted from the listing.
# Entry for COc1nc(C)cnc1NS(=O)(=O)c1cccnc1-c1ccc(-c2nnco2)cc1 [Zibotentan] under phospho-S6 immunofluorescence (z-score) [1]: -1.11
# Entry for C[C@]12CCC(=O)C=C1CC[C@@H]1[C@@H]2CC[C@@]2(C)[C@H]1CC[C@]2(O)C(=O)CO [Cortodoxone] under phospho-S6 immunofluorescence (z-score) [1]: 0.33

# More entries follow.

SMILES,phospho-S6 immunofluorescence (z-score) [1],phospho-S6 immunofluorescence (z-score) [2],phospho-S6 immunofluorescence (z-score) [3],phospho-S6 immunofluorescence (z-score) [4],phospho-S6 immunofluorescence (z-score) [5],phospho-S6 immunofluorescence (z-score) [6],phospho-S6 immunofluorescence (z-score) [7],phospho-S6 immunofluorescence (z-score) [8],phospho-S6 immunofluorescence (z-score) [9]
CCOC(=O)c1ccc(-n2cc(Cc3cnc(OCC)nc3)c(=O)nc2SCc2ccc(F)cc2)cc1,-0.48,-0.32,-0.92,-2.04,-0.07,-1.34,-3.26,-3.79,-4.85
c1ccc(CC2=NCCN2)cc1 [Tolazoline (hydrochloride)],0.34,0.41,0.19,1.31,0.53,1,1.08,0.41,0.92
CCN(CC)Cc1ccc(C(=O)N(CCc2ccccc2OC)[C@@H]2CCNC2)cc1,-0.92,-0.8,-0.3,-0.97,-0.27,-1.11,0.19,0.1,0.12
OC[C@H]1O[C@@H](n2cnc3c(N[C@H]4CCC[C@@H]4O)ncnc32)[C@H](O)[C@@H]1O,0.93,0.96,-0.28,1.29,0.69,0.15,0.54,0.82,0.2
CC(C)NCC(O)COc1ccc(CCOCC2CC2)cc1 (centres undefined) [Betaxolol (hydrochloride)],-0.2,-0.16,-0.02,1.44,-0.42,0.79,0.79,0.07,0.74
Nc1nc(N)nc(-c2cc(Cl)ccc2Cl)n1 [Irsogladine],-0.67,-0.02,-0.88,0.42,0.25,0.09,-0.7,0.22,-1.11
Cc1ccc(-c2n[nH]c3c2C(c2cccc(O)c2)N(c2ccc(C(=O)O)cc2)C3=O)cc1 (centres undefined),0.3,0.02,-0.66,-0.15,-0.3,0.45,0,0.5,-0.12
O=C(N[C@@H]1CC[C@@H](c2cccc(F)c2F)CN(CC(F)(F)F)C1=O)N1CCC(n2c(=O)[nH]c3ncccc32)CC1,-0.51,0.42,-0.58,-0.66,0.86,-0.01,0.18,0.53,-0.42
COc1ccc(C2CC(c3ccccc3)=NN2c2ccc(S(N)(=O)=O)cc2)cc1 (centres undefined),1.48,0.59,1.68,0.08,0.24,1.03,-3.22,-0.2,-6.71
COc1cc(N)c(Cl)cc1C(=O)NC1CCN(Cc2ccccc2)CC1 [Clebopride (malate)],0.55,0.41,1.18,0.44,0.4,0.5,0.46,-0.14,0.29
N=C(N)NCCCCN [Agmatine (sulfate)],0.23,0.3,-0.72,0.45,-0.2,0.35,0.88,-0.16,0.73
CC(C)C[C@H](NC(=O)CNC(=O)[C@H](Cc1ccc(O)cc1)NC(=O)[C@H](CO)NC(=O)[C@H](Cc1c[nH]c2ccccc12)NC(=O)[C@H](Cc1cnc[nH]1)NC(=O)[C@@H]1CCC(=O)N1)C(=O)N[C@@H](CCCNC(=N)N)C(=O)N1CCC[C@H]1C(=O)NCC(N)=O [Gonadorelin (acetate)],-0.29,-0.4,0.73,-0.03,-0.42,-1.55,-0.45,0.57,0.07
CC(=O)Oc1cc(C(C)C)c(OCCN(C)C)cc1C [Moxisylyte (hydrochloride)],0.26,0.75,-0.45,0.54,-0.29,-1.58,0.49,-0.11,-1.23
CN1CCN(C2=Nc3cc(Cl)ccc3Nc3ccccc32)CC1 [Clozapine],-0.36,0.37,-1.8,-1.18,0.54,-2.56,-0.16,-0.32,-0.32
CC(C)NCC(O)c1ccc(NS(C)(=O)=O)cc1 (centres undefined) [Sotalol (hydrochloride)],0.82,0.77,1.24,1.23,0.26,-0.11,1.31,1.24,0.37
CCOc1cc(N)c(Cl)cc1C(=O)NCC1CN(Cc2ccc(F)cc2)CCO1 (centres undefined) [Mosapride (citrate)],0.57,0.53,0.59,0.37,-1.07,0.97,0.76,0.46,0.79
CN1CCN2c3ncccc3Cc3ccccc3C2C1 (centres undefined) [Mirtazapine],0.2,0.22,-0.87,0.47,0.96,-1.75,0.65,0.99,-0.48
C[C@H](CCC(=O)O)[C@H]1CC[C@H]2[C@@H]3CC[C@@H]4C[C@H](O)CC[C@]4(C)[C@H]3C[C@H](O)[C@]12C [Deoxycholic acid],0.35,0.38,-0.06,0.24,0.15,-0.22,0.02,0.6,-0.17
O=S(=O)(c1ccccc1)c1cnc2c(N3CCNCC3)cccc2c1,-0.1,-0.81,-0.12,-0.38,-1.47,0.52,0.13,-2.25,0.76
CC1(C)O[C@@H]2C[C@H]3[C@@H]4CCC5=CC(=O)C=C[C@]5(C)[C@H]4[C@@H](O)C[C@]3(C)[C@]2(C(=O)CO)O1 [Desonide],0.92,1.88,2.18,0.01,1.53,1.42,-0.1,0.54,1.16
